Assay results taken from patent US9458203B2, “Integrin-blocking polypeptides and uses thereof” (priority 2011, dated 2016).
Like-named read-outs stand apart in the source and are kept apart here. Not every detail of the peptide structures is certain; ends, links or a residue may be inferred. Some compounds share one wording; it may come from a single statement. Ends that are not written are not given here.

Sequences of proteins named here, by UniProt entry; tags and fusion partners are left off. Residues count along the entry.
UniProt P05106, 27-788: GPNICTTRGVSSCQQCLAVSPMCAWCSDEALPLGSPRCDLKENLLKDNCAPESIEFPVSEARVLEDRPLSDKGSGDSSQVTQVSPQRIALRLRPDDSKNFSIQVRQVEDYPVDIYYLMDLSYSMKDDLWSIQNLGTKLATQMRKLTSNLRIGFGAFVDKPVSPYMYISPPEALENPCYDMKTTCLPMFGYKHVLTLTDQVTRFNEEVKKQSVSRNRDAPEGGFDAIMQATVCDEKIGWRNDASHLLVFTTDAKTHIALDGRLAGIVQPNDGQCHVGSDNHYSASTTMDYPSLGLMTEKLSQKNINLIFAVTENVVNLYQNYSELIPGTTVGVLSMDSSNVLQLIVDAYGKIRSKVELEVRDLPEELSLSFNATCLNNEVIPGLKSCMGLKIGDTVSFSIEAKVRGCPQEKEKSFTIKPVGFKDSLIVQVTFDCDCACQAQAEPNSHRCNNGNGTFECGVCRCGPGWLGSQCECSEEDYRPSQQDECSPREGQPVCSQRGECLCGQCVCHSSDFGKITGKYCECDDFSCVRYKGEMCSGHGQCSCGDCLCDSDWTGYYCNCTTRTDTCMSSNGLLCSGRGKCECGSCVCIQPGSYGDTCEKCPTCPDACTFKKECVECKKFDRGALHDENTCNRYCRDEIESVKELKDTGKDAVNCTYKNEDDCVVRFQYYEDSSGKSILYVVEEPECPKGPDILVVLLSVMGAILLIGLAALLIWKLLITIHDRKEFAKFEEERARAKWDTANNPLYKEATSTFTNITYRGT
UniProt P06756, 891-1048 partner limits assumed: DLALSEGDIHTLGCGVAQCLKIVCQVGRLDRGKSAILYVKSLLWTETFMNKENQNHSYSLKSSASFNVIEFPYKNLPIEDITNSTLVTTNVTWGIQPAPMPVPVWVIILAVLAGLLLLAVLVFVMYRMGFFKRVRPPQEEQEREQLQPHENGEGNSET
UniProt P06756, 31-889 limits assumed: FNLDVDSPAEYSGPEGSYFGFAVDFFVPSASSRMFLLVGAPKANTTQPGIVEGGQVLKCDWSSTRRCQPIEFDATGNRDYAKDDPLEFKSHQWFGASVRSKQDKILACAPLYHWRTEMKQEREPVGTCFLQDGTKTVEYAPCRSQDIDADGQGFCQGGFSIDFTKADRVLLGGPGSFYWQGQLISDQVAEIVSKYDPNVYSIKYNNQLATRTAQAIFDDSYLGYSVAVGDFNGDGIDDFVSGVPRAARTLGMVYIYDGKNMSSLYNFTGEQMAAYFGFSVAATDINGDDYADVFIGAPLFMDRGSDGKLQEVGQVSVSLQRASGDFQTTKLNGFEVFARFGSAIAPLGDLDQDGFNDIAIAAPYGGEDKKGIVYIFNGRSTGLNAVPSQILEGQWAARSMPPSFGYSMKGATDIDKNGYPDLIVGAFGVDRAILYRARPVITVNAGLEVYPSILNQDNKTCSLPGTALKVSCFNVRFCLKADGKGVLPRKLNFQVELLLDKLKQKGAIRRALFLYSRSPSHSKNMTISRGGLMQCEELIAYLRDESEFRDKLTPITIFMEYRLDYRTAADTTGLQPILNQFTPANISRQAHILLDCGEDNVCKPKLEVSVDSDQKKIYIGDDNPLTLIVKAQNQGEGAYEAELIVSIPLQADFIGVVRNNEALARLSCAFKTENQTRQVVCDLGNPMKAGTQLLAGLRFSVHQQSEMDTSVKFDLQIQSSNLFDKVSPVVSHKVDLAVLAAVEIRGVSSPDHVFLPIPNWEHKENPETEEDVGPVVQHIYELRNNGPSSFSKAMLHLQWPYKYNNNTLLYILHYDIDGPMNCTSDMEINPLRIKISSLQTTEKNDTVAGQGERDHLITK
UniProt P08648, 895-1049 partner limits assumed: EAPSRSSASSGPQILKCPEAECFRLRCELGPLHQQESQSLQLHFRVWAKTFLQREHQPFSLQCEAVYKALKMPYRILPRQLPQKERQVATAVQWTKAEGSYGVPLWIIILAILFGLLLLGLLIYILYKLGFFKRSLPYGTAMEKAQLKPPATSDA
UniProt P08648, 42-894 limits assumed: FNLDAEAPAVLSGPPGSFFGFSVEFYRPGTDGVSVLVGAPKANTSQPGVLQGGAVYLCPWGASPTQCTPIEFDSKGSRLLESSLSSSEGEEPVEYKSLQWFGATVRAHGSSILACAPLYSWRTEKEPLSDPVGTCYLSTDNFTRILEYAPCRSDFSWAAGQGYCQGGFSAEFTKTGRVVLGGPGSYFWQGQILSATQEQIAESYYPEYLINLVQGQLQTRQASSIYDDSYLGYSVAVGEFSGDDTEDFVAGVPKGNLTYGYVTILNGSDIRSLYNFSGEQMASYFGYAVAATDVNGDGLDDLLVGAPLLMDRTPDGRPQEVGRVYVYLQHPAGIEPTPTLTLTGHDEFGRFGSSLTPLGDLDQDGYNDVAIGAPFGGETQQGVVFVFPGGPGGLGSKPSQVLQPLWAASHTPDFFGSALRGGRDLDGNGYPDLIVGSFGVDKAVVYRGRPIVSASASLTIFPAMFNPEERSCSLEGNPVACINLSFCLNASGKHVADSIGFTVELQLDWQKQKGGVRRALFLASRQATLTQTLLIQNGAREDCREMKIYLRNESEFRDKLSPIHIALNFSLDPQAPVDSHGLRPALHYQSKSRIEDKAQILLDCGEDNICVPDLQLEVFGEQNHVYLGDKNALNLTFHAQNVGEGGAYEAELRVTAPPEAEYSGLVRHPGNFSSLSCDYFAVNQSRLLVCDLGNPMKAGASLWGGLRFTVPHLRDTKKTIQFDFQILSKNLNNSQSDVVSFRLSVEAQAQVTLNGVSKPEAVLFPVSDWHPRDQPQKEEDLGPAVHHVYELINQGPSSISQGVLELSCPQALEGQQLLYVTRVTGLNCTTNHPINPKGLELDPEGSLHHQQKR

Assays:
[1] = test system: collagen-induced arthritis; assay: collagen-induced arthritis (CIA) mouse models; assay type: in vivo, DBA/1 mice; conditions: for in vivo immunoprotective / therapeutic effect on CIA mouse models: all doses, hypodermic twice a day, 10 days; for swelling of joints / swelling of paws / clinical scoring: CIA mice; for clinical scoring: joint score, 16 as the highest point
[2] = test system: human ovarian cancer SK-OV-3; assay type: in vivo, nude mice; conditions: for tumor inhibition rate / tumor weight: daily, tail vein injection; for inhibition rate on tumor: tail vein daily
[3] = test system: human umbilical vein endothelial cells (HUVECs); assay: inhibition of migration of HUVECs (transwell); assay type: cell-based; conditions: 24 h
integrin αvβ3 = target: T1, integrin αvβ3 (Homo sapiens, UniProt P05106+P06756); assay: flow cytometry: combination of FITC-labeled polypeptide with target on Bel-7402 cells; assay type: binding
T1 construct: integrin αvβ3 was expressed on the surface of Bel-7402 cells; endogenous in cells; host or cells: Bel-7402 cells

human lung cancer H460 = conditions: tail vein daily
human renal cancer A498 = assay type: in vivo, nude mice; conditions: for tumor inhibition rate / tumor weight: daily, tail vein injection; for inhibition rate on tumor: tail vein daily
human colon cancer HT-29 = assay type: in vivo, nude mice; conditions: for tumor inhibition rate / tumor weight: daily, tail vein injection; for inhibition rate on tumor: tail vein daily
[4] = test system: human umbilical vein endothelial cells (HUVECs); assay: inhibition of capillary formation of HUVECs (matrigel); assay type: cell-based
Experimental: Thawing 10 mg/mL matrigel (BD Company, USA) stocked at −20° C. overnight at 4° C., diluting it with HUVEC culture medium at the ratio of 1:1; smearing 30 μl of the solution on a 96-well plate (Greiner Company, USA), placing the plate at a 37 incubator for 1 h of aggregation. Digesting the HUVECs with 0.2% ethylene diamine tetraacetic acid (EDTA) when they reached the logarithmic phase; collecting the cells and washing them with PBS buffer twice, and then resuspending the cells with blank HUVEC culture medium. Counting the cells under a microscope, adjusting the cell concentration to 1×10^5 cells/ml. Preparing the testing solution for all groups, and diluting with blank HUVEC culture medium to 100 μl. Seeding the cells into the 96-well plate, 100 μl for each well, adding also the testing solution into each well and incubating the cells in 5% CO2 at 37° C. After 6 h, 12 h, 24 h, 36 h, 48 h, 60 h of incubation, randomly choosing 5 FOVs for each dose, photographing and counting the cells; calculating the number of capillary structures at different doses and analyzing the inhibition effect of polypeptide II and polypeptide III on HUVECs' differentiating into capillaries. The inhibition rate of capillary formation was calculated in accordance with the following formula: […]
wherein Ntest is the number of capillary structures in the test groups while Ncontrol is the number of capillary structures in the negative control group.

[5] = test system: human breast cancer MDA-MB-231; assay: heterotransplanted human breast cancer MDA-MB-231 in nude mice; conditions: tail vein once a day, 14 days
[6] = test system: human endometrial cancer HHUA; conditions: tail vein daily
integrin α5β1 = target: T2, integrin α5β1 (Homo sapiens, UniProt P05556+P08648); assay: flow cytometry: combination of FITC-labeled polypeptide with target on Bel-7402 cells; assay type: binding; conditions: when adding in integrin α5β1 antibody
T2 construct: culturing Bel-7402 cells in a culture flask to 80% confluence; endogenous in cells; host or cells: Bel-7402 cells

[7] = test system: human thyroid cancer SW-579; assay type: in vivo, nude mice; conditions: for tumor inhibition rate / tumor weight: daily, tail vein injection; for inhibition rate on tumor: tail vein daily
[8] = high-, medium- and low-dose groups, p<0.01

RGDGGGGFQPVLHLVALNSPLSGGMRGIRGADFQCFQQARAVGLAGTFRA [polypeptide II]
in vivo immunoprotective / therapeutic effect on CIA mouse models [1]: have therapeutic effect
in vivo immunoprotective / therapeutic effect on CIA mouse models ([1]; listed as Polypeptide II): presented in vivo immunoprotective effect
swelling of joints ([1]; dose 0.2 mg/kg): 0.95 ± 0.24 mm
swelling of paws ([1]; dose 0.2 mg/kg): 1.12 ± 0.32 mm
clinical scoring ([1]; dose 0.2 mg/kg): 9.82 ± 1.48
swelling of joints ([1]; dose 0.4 mg/kg): 0.83 ± 0.21 mm
swelling of paws ([1]; dose 0.4 mg/kg): 0.99 ± 0.20 mm
clinical scoring ([1]; dose 0.4 mg/kg): 9.269 ± 1.3
swelling of joints ([1]; dose 0.8 mg/kg): 1.16 ± 0.32 mm
swelling of paws ([1]; dose 0.8 mg/kg): 1.44 ± 0.29 mm
clinical scoring ([1]; dose 0.8 mg/kg): 10.73 ± 1.65
joint scoring in contrast with model control group [1, 8]: extremely lower
swelling degree of joints in contrast with model control group [1, 8]: extremely significant difference
swelling degree of paws in contrast with model control group [1, 8]: extremely significant difference
tumor inhibition rate ([2]; 0.75 mg/kg/time): 68.36%
tumor weight ([2]; 0.75 mg/kg/time): 0.42 ± 0.10 g
tumor inhibition rate ([2]; 1.5 mg/kg/time): 72.76%
tumor weight ([2]; 1.5 mg/kg/time): 0.36 ± 0.08 g
tumor inhibition rate ([2]; 3 mg/kg/time): 63.25%
tumor weight ([2]; 3 mg/kg/time): 0.49 ± 0.14 g
inhibition rate on tumor ([2]; high dose): 63.25%
inhibition rate on tumor ([2]; low dose): 68.36%
inhibition rate on tumor ([2]; medium dose): 72.76%
MI rate ([3]; 0.13 μg/ml): 24.44%
number of migrated cells (mean ± SD) ([3]; 0.13 μg/ml): 875.0 ± 35.3
MI rate ([3]; 0.25 μg/ml): 30.85%
number of migrated cells (mean ± SD) ([3]; 0.25 μg/ml): 800.7 ± 64.8
MI rate ([3]; 0.5 μg/ml): 40.78%
number of migrated cells (mean ± SD) ([3]; 0.5 μg/ml): 685.7 ± 32.5
MI rate ([3]; 1 μg/ml): 47.24%
number of migrated cells (mean ± SD) ([3]; 1 μg/ml): 611.0 ± 74.1
MI rate ([3]; 2 μg/ml): 48.15%
number of migrated cells (mean ± SD) ([3]; 2 μg/ml): 600.3 ± 39.3
MI rate ([3]; 4 μg/ml): 54.10%
number of migrated cells (mean ± SD) ([3]; 4 μg/ml): 531.5 ± 72.6
MI rate ([3]; 8 μg/ml): 69.87%
number of migrated cells (mean ± SD) ([3]; 8 μg/ml): 348.8 ± 39.9
MI rate ([3]; 16 μg/ml): 60.27%
number of migrated cells (mean ± SD) ([3]; 16 μg/ml): 460.1 ± 97.3
fluorescence intensity of polypeptide labeled with FITC (integrin αvβ3; before adding in the antibody): 80.4%
fluorescence intensity of polypeptide labeled with FITC (integrin αvβ3; when adding in integrin αvβ3 antibody): 13.4%
tumor inhibition rate (human lung cancer H460; 0.75 mg/kg/time): 53.49%
tumor weight (human lung cancer H460; 0.75 mg/kg/time): 0.41 ± 0.17 g
tumor inhibition rate (human lung cancer H460; 1.5 mg/kg/time): 65.37%
tumor weight (human lung cancer H460; 1.5 mg/kg/time): 0.30 ± 0.05 g
tumor inhibition rate (human lung cancer H460; 3 mg/kg/time): 57.68%
tumor weight (human lung cancer H460; 3 mg/kg/time): 0.37 ± 0.17 g
tumor inhibition rate (human renal cancer A498; 0.75 mg/kg/time): 67.03%
tumor weight (human renal cancer A498; 0.75 mg/kg/time): 0.41 ± 0.11 g
tumor inhibition rate (human renal cancer A498; 1.5 mg/kg/time): 71.41%
tumor weight (human renal cancer A498; 1.5 mg/kg/time): 0.35 ± 0.09 g
tumor inhibition rate (human renal cancer A498; 3 mg/kg/time): 64.90%
tumor weight (human renal cancer A498; 3 mg/kg/time): 0.43 ± 0.11 g
inhibition rate on tumor (human renal cancer A498; high dose): 64.90%
inhibition rate on tumor (human renal cancer A498; low dose): 67.03%
inhibition rate on tumor (human renal cancer A498; medium dose): 71.41%
tumor inhibition rate (human colon cancer HT-29; 0.75 mg/kg/time): 78.32%
tumor weight (human colon cancer HT-29; 0.75 mg/kg/time): 0.31 ± 0.07 g
tumor inhibition rate (human colon cancer HT-29; 1.5 mg/kg/time): 81.96%
tumor weight (human colon cancer HT-29; 1.5 mg/kg/time): 0.26 ± 0.07 g
tumor inhibition rate (human colon cancer HT-29; 3 mg/kg/time): 72.93%
tumor weight (human colon cancer HT-29; 3 mg/kg/time): 0.39 ± 0.09 g
inhibition rate on tumor (human colon cancer HT-29; high dose): 72.93%
inhibition rate on tumor (human colon cancer HT-29; low dose): 78.32%
inhibition rate on tumor (human colon cancer HT-29; medium dose): 81.96%
inhibition rate (%) of capillary formation ([4]; 6 h, 0.25 μg/ml): 8.45%
number of capillary structures (mean ± SD) ([4]; 6 h, 0.25 μg/ml): 26.0 ± 4.3
inhibition rate (%) of capillary formation ([4]; 6 h, 0.5 μg/ml): 29.58%
number of capillary structures (mean ± SD) ([4]; 6 h, 0.5 μg/ml): 20.0 ± 0.8
inhibition rate (%) of capillary formation ([4]; 6 h, 1 μg/ml): 34.86%
number of capillary structures (mean ± SD) ([4]; 6 h, 1 μg/ml): 18.5 ± 5.0
inhibition rate (%) of capillary formation ([4]; 6 h, 2 μg/ml): 74.65%
number of capillary structures (mean ± SD) ([4]; 6 h, 2 μg/ml): 7.2 ± 0.8
inhibition rate (%) of capillary formation ([4]; 6 h, 4 μg/ml): 78.87%
number of capillary structures (mean ± SD) ([4]; 6 h, 4 μg/ml): 6.0 ± 1.0
inhibition rate (%) of capillary formation ([4]; 6 h, 8 μg/ml): 71.83%
number of capillary structures (mean ± SD) ([4]; 6 h, 8 μg/ml): 8.0 ± 1.4
inhibition rate (%) of capillary formation ([4]; 12 h, 0.25 μg/ml): 23.08%
number of capillary structures (mean ± SD) ([4]; 12 h, 0.25 μg/ml): 14.0 ± 3.3
inhibition rate (%) of capillary formation ([4]; 12 h, 0.5 μg/ml): 37.36%
number of capillary structures (mean ± SD) ([4]; 12 h, 0.5 μg/ml): 11.4 ± 1.6
inhibition rate (%) of capillary formation ([4]; 12 h, 1 μg/ml): 40.93%
number of capillary structures (mean ± SD) ([4]; 12 h, 1 μg/ml): 10.7 ± 1.2
inhibition rate (%) of capillary formation ([4]; 12 h, 2 μg/ml): 80.77%
number of capillary structures (mean ± SD) ([4]; 12 h, 2 μg/ml): 3.5 ± 0.5
inhibition rate (%) of capillary formation ([4]; 12 h, 4 μg/ml): 81.68%
number of capillary structures (mean ± SD) ([4]; 12 h, 4 μg/ml): 3.3 ± 2.5
inhibition rate (%) of capillary formation ([4]; 12 h, 8 μg/ml): 76.19%
number of capillary structures (mean ± SD) ([4]; 12 h, 8 μg/ml): 4.3 ± 0.5
inhibition rates on HUVECs' differentiating into capillaries ([4]; at both medium and low doses): over 50%
tumor inhibition rate ([5]; 0.75 mg/kg/time): 57.83%
tumor weight ([5]; 0.75 mg/kg/time): 0.50 ± 0.17 g
tumor inhibition rate ([5]; 1.5 mg/kg/time): 67.82%
tumor weight ([5]; 1.5 mg/kg/time): 0.38 ± 0.12 g
tumor inhibition rate ([5]; 3 mg/kg/time): 63.80%
tumor weight ([5]; 3 mg/kg/time): 0.43 ± 0.12 g
tumor inhibition rate ([6]; 0.75 mg/kg/time): 64.03%
tumor weight ([6]; 0.75 mg/kg/time): 0.41 ± 0.11 g
tumor inhibition rate ([6]; 1.5 mg/kg/time): 67.54%
tumor weight ([6]; 1.5 mg/kg/time): 0.37 ± 0.07 g
tumor inhibition rate ([6]; 3 mg/kg/time): 59.65%
tumor weight ([6]; 3 mg/kg/time): 0.46 ± 0.11 g
fluorescence intensity of polypeptide labeled with FITC (integrin α5β1): 33.2%
tumor inhibition rate ([7]; 0.75 mg/kg/time): 60.97%
tumor weight ([7]; 0.75 mg/kg/time): 0.51 ± 0.13 g
tumor inhibition rate ([7]; 1.5 mg/kg/time): 66.94%
tumor weight ([7]; 1.5 mg/kg/time): 0.43 ± 0.10 g
tumor inhibition rate ([7]; 3 mg/kg/time): 56.59%
tumor weight ([7]; 3 mg/kg/time): 0.57 ± 0.15 g
inhibition rate on tumor ([7]; high dose): 56.59%
inhibition rate on tumor ([7]; low dose): 60.97%
inhibition rate on tumor ([7]; medium dose): 66.94%
